Data from the primary screen of doi:10.1371/journal.pone.0140310, rounded.

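Human melanoma cell lines in 1,536-well plates were treated with two drugs together for 72 h, then fixed, stained and imaged. Values are the number of DAPI-stained nuclei as a percentage of the DMSO control: 100 is no effect, lower means fewer cells. Every drug was used at one fixed concentration, the lower of two screened (a fifth of the higher). These are primary screening values without error estimates.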
An unselected part of the screen is shown.
A dash means that no value is listed here.

First drug in all entries: ENMD-2076, 40 nM, Cc1cc(Nc2cc(N3CCN(C)CC3)nc(/C=C/c3ccccc3)n2)n[nH]1

Drugs:
PF-04217903 (1000 nM): OCCn1cc(-c2cnc3nnn(Cc4ccc5ncccc5c4)c3n2)cn1
erlotinib (800 nM): C#Cc1cccc(Nc2ncnc3cc(OCCOC)c(OCCOC)cc23)c1
GSK650394 (160 nM): O=C(O)c1ccc(-c2c[nH]c3ncc(-c4ccccc4)cc23)cc1C1CCCC1
XAV939 (2000 nM): Oc1nc(-c2ccc(C(F)(F)F)cc2)nc2c1CSCC2
RKI-983 (400 nM): C[C@@H](N)c1ccc(C(=O)Nc2ccnc3[nH]ccc23)cc1
dorsomorphin (400 nM): c1cc(-c2cnn3cc(-c4ccc(OCCN5CCCCC5)cc4)cnc23)ccn1
T0901317 (1400 nM): O=S(=O)(c1ccccc1)N(CC(F)(F)F)c1ccc(C(O)(C(F)(F)F)C(F)(F)F)cc1
veliparib (1400 nM): C[C@]1(c2nc3c(C(N)=O)cccc3[nH]2)CCCN1
SNS-032 (10 nM): CC(C)(C)c1cnc(CSc2cnc(NC(=O)C3CCNCC3)s2)o1
palbociclib (40 nM): CC(=O)c1c(C)c2cnc(Nc3ccc(N4CCNCC4)cn3)nc2n(C2CCCC2)c1=O
KU-55933 (1000 nM): O=c1cc(-c2cccc3c2Sc2ccccc2S3)oc(N2CCOCC2)c1
FH535 (1000 nM): Cc1cc([N+](=O)[O-])ccc1NS(=O)(=O)c1cc(Cl)ccc1Cl
bortezomib (1 nM): CC(C)C[C@H](NC(=O)[C@H](Cc1ccccc1)NC(=O)c1cnccn1)B(O)O
vincristine (0.1 nM): CC[C@]1(O)C[C@H]2CN(CCc3c([nH]c4ccccc34)[C@@](C(=O)OC)(c3cc4c(cc3OC)N(C=O)[C@H]3[C@@](O)(C(=O)OC)[C@H](OC(C)=O)[C@]5(CC)C=CCN6CC[C@]43[C@@H]65)C2)C1
PD173074 (100 nM): CCN(CC)CCCCNc1ncc2cc(-c3cc(OC)cc(OC)c3)c(NC(=O)NC(C)(C)C)nc2n1
crizotinib (200 nM): C[C@@H](Oc1cc(-c2cnn(C3CCNCC3)c2)cnc1N)c1c(Cl)ccc(F)c1Cl
ZM336372 (2000 nM): Cc1ccc(NC(=O)c2cccc(N(C)C)c2)cc1NC(=O)c1ccc(O)cc1
SU6656 (400 nM): CN(C)S(=O)(=O)c1ccc2c(c1)/C(=C/c1cc3c([nH]1)CCCC3)C(=O)N2
BI-78D3 (200 nM): O=c1[nH]nc(Sc2ncc([N+](=O)[O-])s2)n1-c1ccc2c(c1)OCCO2
midostaurin (80 nM): CO[C@@H]1[C@H](N(C)C(=O)c2ccccc2)C[C@H]2O[C@]1(C)n1c3ccccc3c3c4c(c5c6ccccc6n2c5c31)C(=O)NC4
BMS-536924 (200 nM): Cc1cc(N2CCOCC2)cc2[nH]c(-c3c(NC[C@@H](O)c4cccc(Cl)c4)cc[nH]c3=O)nc12
MK-1775 (20 nM): C=CCn1c(=O)c2cnc(Nc3ccc(N4CCN(C)CC4)cc3)nc2n1-c1cccc(C(C)(C)O)n1
vorinostat (80 nM): O=C(CCCCCCC(=O)Nc1ccccc1)NO

Second drug	IST-MEL1	A101D	A375	COLO 792	COLO 829	MEL-HO	COLO 800	A2058	501mel	LOX IMVI	LB2518-MEL	IPC-298	C32	G-361
ZM336372	104	97.3	88.6	104	86.1	106	141	96.9	-	300	82.3	86.4	91.8	109
BMS-536924	93.6	88.6	85.7	87.1	102	90.9	55.1	101	-	114	90.7	88.0	98.3	84.4
midostaurin	93.8	80.1	81.4	96.0	97.7	107	89.8	86.1	-	118	84.9	95.7	98.6	73.2
KU-55933	97.7	92.3	-	109	90.1	105	114	98.6	92.0	93.2	102	96.3	91.6	112
veliparib	95.0	90.2	95.8	82.6	88.9	122	75.7	79.9	-	116	98.0	105	99.2	95.9
vorinostat	98.4	103	93.4	95.8	87.0	91.0	75.8	112	-	82.7	102	92.7	97.3	104
SU6656	96.5	79.4	131	86.9	82.8	113	107	80.3	-	103	89.5	101	98.3	103
FH535	93.3	82.7	-	86.7	109	87.9	83.6	92.1	93.5	107	81.0	97.9	92.8	100
XAV939	96.6	99.5	-	80.9	88.5	80.0	77.1	79.8	118	110	85.1	96.7	96.6	90.7
palbociclib	88.9	82.5	77.8	76.2	81.2	77.6	97.6	99.2	-	54.4	75.8	86.4	89.8	91.6
erlotinib	96.9	82.5	77.9	78.3	107	88.3	50.3	94.6	-	69.4	81.2	90.0	84.6	98.8
crizotinib	97.2	89.7	82.1	86.3	121	119	87.5	116	-	121	104	102	-	102
BI-78D3	99.5	94.8	119	90.4	97.9	102	88.2	93.9	-	87.9	87.2	104	93.0	80.2
dorsomorphin	106	99.6	-	89.0	93.0	109	100	105	76.1	145	100	102	83.2	86.8
vincristine	94.5	84.3	78.6	104	79.1	97.6	90.6	32.2	-	178	118	101	78.1	130
PF-04217903	94.1	76.7	105	90.2	117	107	90.2	101	-	64.5	94.0	102	107	112
T0901317	103	90.0	-	94.4	113	94.9	82.3	96.4	85.1	90.8	97.6	92.0	90.7	104
MK-1775	101	81.1	55.1	85.5	99.6	86.7	91.1	98.7	-	123	97.3	99.9	94.5	102
RKI-983	110	103	72.3	82.1	89.1	72.6	121	68.9	-	77.3	123	98.2	90.7	111
PD173074	114	101	-	90.1	120	98.8	121	104	87.5	119	98.3	108	111	113
GSK650394	93.4	99.2	97.6	127	97.5	98.3	116	98.8	-	118	102	97.6	104	92.6
SNS-032	94.6	92.2	92.4	96.8	102	105	103	93.4	-	117	89.6	98.5	113	91.1
bortezomib	92.0	53.4	98.6	90.6	79.8	97.8	79.1	88.0	-	74.6	62.2	80.0	115	40.6